Test results reported in the supplement of paper PMC6411743.
± gives the standard deviation of the averaged measurements. This is a selection; strong and weak results do not stand in their true shares.

Experiments:
Test in all cases: NP40-soluble protein abundance relative to vehicle (solubility fold change) (ratio); higher = more soluble protein in presence of ATP
SEMA4D = biological target: T1, SEMA4D (UniProt Q92854)
T1 sequence (whole entry): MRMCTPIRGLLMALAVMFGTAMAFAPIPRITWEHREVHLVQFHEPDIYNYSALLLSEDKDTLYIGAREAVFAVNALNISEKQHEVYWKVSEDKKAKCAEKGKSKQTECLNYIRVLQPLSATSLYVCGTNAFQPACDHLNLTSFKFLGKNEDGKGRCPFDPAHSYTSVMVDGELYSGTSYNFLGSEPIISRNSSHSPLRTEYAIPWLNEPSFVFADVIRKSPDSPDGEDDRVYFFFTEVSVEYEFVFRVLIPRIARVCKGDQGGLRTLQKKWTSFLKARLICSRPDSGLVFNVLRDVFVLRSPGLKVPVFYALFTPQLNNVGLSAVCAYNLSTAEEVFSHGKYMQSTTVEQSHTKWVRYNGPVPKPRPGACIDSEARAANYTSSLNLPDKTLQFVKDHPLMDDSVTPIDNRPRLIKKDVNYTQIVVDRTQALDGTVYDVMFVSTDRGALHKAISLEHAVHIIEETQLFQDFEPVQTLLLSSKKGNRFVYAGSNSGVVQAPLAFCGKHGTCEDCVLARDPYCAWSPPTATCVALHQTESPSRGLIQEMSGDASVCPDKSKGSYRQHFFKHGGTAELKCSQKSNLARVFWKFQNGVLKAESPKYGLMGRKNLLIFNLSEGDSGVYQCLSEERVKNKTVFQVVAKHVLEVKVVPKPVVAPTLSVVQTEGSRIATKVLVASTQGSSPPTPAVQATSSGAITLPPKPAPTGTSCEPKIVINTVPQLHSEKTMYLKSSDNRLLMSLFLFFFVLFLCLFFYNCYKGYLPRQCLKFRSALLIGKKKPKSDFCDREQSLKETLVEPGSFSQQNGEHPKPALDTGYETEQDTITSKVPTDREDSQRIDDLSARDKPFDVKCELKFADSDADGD
Outline: (§1)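 Jurkat crude lysate prepared with a Dounce homogeniser was treated at eight concentrations spanning 0.1 to 10 mM, 10 min at room temperature then 3 min at 37 °C. Solubilisation with 0.8% NP40 and benzonase and ultracentrifugation preceded TMT labelling of the supernatant for LC-MS/MS. Fold change against the detergent-processed vehicle was determined per replicate from vsn-normalised intensities, across three independent experiments.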

SYMPK = biological target: T2, SYMPK (UniProt Q92797)
T2 sequence (whole entry): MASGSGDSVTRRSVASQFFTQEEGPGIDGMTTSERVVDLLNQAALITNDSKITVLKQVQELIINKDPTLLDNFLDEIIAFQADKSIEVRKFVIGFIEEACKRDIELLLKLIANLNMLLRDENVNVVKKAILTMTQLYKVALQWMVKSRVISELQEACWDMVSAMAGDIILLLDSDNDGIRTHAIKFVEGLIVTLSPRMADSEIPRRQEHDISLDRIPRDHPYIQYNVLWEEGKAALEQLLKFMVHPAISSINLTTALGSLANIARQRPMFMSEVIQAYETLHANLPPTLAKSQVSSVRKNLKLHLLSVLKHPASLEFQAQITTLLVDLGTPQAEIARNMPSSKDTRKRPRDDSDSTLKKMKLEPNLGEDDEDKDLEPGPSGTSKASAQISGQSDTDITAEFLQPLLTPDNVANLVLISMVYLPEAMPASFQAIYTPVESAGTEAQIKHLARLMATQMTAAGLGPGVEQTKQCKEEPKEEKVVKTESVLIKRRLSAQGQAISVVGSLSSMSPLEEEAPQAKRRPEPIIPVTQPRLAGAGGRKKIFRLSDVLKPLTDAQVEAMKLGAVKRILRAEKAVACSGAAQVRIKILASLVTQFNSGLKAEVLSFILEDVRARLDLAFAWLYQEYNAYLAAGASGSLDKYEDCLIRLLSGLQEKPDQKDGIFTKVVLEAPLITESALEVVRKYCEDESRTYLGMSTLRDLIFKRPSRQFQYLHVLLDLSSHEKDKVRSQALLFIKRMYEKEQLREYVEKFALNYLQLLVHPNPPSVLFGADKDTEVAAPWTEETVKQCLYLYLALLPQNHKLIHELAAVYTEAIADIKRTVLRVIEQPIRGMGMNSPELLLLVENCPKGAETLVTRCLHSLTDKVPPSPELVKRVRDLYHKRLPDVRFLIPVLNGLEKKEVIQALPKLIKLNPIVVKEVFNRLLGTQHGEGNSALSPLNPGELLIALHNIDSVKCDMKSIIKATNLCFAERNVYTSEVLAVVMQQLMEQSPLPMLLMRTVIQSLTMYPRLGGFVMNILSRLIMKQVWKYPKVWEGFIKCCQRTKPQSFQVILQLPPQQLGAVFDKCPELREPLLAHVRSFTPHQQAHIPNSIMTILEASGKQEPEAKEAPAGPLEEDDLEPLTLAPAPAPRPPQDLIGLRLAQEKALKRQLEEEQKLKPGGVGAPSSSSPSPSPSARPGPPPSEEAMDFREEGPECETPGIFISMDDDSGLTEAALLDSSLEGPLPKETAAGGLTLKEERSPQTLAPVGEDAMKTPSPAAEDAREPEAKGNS
Outline: as §1

UBLCP1 = biological target: T3, UBLCP1 (UniProt Q8WVY7)
T3 sequence (whole entry): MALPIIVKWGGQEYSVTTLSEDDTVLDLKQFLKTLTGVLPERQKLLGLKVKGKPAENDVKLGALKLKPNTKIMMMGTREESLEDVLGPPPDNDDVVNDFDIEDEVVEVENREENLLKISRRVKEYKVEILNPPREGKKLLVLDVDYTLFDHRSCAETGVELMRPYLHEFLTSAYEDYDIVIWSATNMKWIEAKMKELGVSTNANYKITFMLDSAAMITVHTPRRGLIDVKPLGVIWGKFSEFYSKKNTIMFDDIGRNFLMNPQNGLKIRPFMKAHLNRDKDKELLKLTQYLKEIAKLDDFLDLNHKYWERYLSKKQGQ
Outline: as §1

Which results are given for `Nc1ncnc2c1ncn2[C@@H]1O[C@H](COP(=O)(O)OP(=O)(O)OP(=O)(O)O)[C@@H](O)[C@H]1O` [adenosine triphosphate]?
NP40-soluble protein abundance (SEMA4D; concentration: 1mM): 0.934 ± 0.041; NP40-soluble protein abundance (SEMA4D; concentration: 2mM): 0.956 ± 0.025; NP40-soluble protein abundance (SEMA4D; concentration: 4mM): 0.9109 ± 0.0088; NP40-soluble protein abundance (SEMA4D; concentration: 6mM): 0.971 ± 0.03; NP40-soluble protein abundance (SEMA4D; concentration: 8mM): 0.904 ± 0.025; NP40-soluble protein abundance (SEMA4D; concentration: 10mM): 0.886 ± 0.03; NP40-soluble protein abundance (SYMPK; concentration: 1mM): 1.01 ± 0.013; NP40-soluble protein abundance (SYMPK; concentration: 2mM): 1.02 ± 0.051; NP40-soluble protein abundance (SYMPK; concentration: 4mM): 1.02 ± 0.043; NP40-soluble protein abundance (SYMPK; concentration: 6mM): 1.03 ± 0.051; NP40-soluble protein abundance (SYMPK; concentration: 8mM): 1.04 ± 0.058; NP40-soluble protein abundance (SYMPK; concentration: 10mM): 1.06 ± 0.048; NP40-soluble protein abundance (UBLCP1; concentration: 1mM): 1.03 ± 0.099; NP40-soluble protein abundance (UBLCP1; concentration: 2mM): 1.01 ± 0.11; NP40-soluble protein abundance (UBLCP1; concentration: 4mM): 1.01 ± 0.067; NP40-soluble protein abundance (UBLCP1; concentration: 6mM): 0.952 ± 0.088
